# Library compounds against nucleic acid targets

Targets, with sequences 5′ to 3′:
SAM-II: SAM-II riboswitch RNA pseudoknot, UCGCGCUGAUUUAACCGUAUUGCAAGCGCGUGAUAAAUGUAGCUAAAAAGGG. Hit rate about 1% of about 21,000 compounds.
PreQ1: PreQ1 riboswitch RNA pseudoknot, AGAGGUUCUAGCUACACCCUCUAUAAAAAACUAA. From B. subtilis. Hit rate about 0.7% of about 24,000 compounds.
TPP: TPP riboswitch RNA three-way junction, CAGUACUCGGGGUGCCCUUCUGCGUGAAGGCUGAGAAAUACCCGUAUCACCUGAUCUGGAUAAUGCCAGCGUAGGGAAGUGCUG. Hit rate about 0.7% of about 24,000 compounds.

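The test is a small-molecule microarray: each compound is printed twice on a reactive slide, and binding shows as fluorescence of the labelled oligonucleotide after washing. The data file lists only calls. An earlier report of the laboratory on the PreQ1, TPP and SAM-II riboswitches (doi:10.1038/s41467-019-09493-3) used 1 µM RNA for 2 h and required a mean Z-score above 3 (spot signal-to-noise against the whole library), a score well above that on a control array, and duplicate spots agreeing (coefficient of variation under 100); it then also set aside compounds that hit other targets, which this list keeps. The cut-offs behind this list may differ. The calls come from the array alone, and fixing a compound to the slide can hide its binding.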
A compound is marked yes if it was called a hit and no if it was screened but was not.
This is an unselected part of the compounds tested.
A target missing from an entry has no call listed here.
A dash means that no call is listed here.

compound | SAM-II | PreQ1 | TPP
Cc1ncc2c(c1CNC(=O)c1n[nH]c3c1CCC3)CCNC2 | no | no | no
CN(C)CCn1ccnc1C1CCCN(C(=O)[C@H]2CC[C@@H](O)CC2)C1 (stereo partly specified) | no | no | no
Cc1cc(C)cc(Nc2cc(C)nc3nc(C)nn23)c1 | no | no | no
CCCCC(=O)C1=C(NCCc2c(C)[nH]c3ccc(C)cc23)CCCC1=O | no | no | no
COCCNCC1C(Oc2ccc(Cl)cc2)C(=O)N1c1ccccc1C (stereo unspecified) | no | no | no
Cc1cccc(Nc2nc(-c3ccccn3)cs2)c1 | no | no | no
Cc1ccc(NCc2nc3nc(C)cc(C)n3n2)cc1 | - | no | no
Cn1c(=O)c2c(ncn2CCCNC2=CC(=O)CC(C)(C)C2)n(C)c1=O | no | no | no
O=C(NCC1COCCO1)c1cccc(S(=O)(=O)N2CCCNCC2)c1 (stereo unspecified) | no | no | no
O=S(=O)(c1ccc(F)cc1)c1nc(-c2ccccc2)oc1NC1CC1 | - | no | no
CN1CC(=O)N2C[C@@H](n3ccnc3-c3cc(C#CCO)cs3)C[C@H]2C1=O | no | no | no
O=C1N(CCO)CCCC12CCN(Cc1cccc(C(F)(F)F)c1)C2 (stereo unspecified) | no | no | no
N#CC1=C(N)N(c2ccccc2)C2=C(C(=O)CCC2)C1c1cccnc1 (stereo unspecified) | no | no | no
Cc1nc2c(c(Nc3ccc(C(=O)OCC(C)C)cc3)n1)CCC2 | - | no | no
CC(=O)c1cc2c(cc1Nc1nn(-c3ccc(F)cc3)nc1C(C)=O)OCO2 | - | no | no
C[C@@H]1CN(Cc2cccc(OCCO)c2)CC[C@@]1(O)C1CCOCC1 | no | no | no
Cc1ccc(NC(=O)c2nnn(Cc3cccc(C(F)(F)F)c3)c2N)cc1 | no | no | no
COc1ccc(CNCCC2(CCC(C)C)CCOC(C)(C)C2)cc1 (stereo unspecified) | - | no | no
Nc1ncnc2nc(-c3ccc(N4CCOCC4)nc3)cc(-c3cccc(Br)c3)c12 | no | no | no
COc1cccc(N2CCN(C(=O)c3ccccc3C3CCNC3)CC2=O)c1 (stereo unspecified) | no | no | no
c1csc(Cc2nc(Cn3ccnc3-c3cc4n(n3)CCNC4)no2)c1 | no | no | no
Cn1c(-c2ccc(Br)cc2)cnc1NCc1cccc(F)c1 | no | no | no
Nc1nnc(SCC(=O)N2CCN(CCc3ccncc3)CC2)s1 | no | no | no
OCCNC1CCCc2c1[nH]c1ccc(-c3ccccc3)cc21 (stereo unspecified) | no | no | no
CC(C)CNC(=O)/C=C\C(=O)O | no | no | no
COCCCNCc1c(C(=O)O)n(Cc2ccc(OC)cc2)c2ccccc12 | - | no | no
CC(O)c1nc2ccccc2n1CCOc1ccc(Cl)cc1 (stereo unspecified) | - | no | no
Cc1cc(C)n(CC(O)Cn2c3ccccc3c3ccccc32)c(=O)n1 (stereo unspecified) | no | no | no
CCOC(=O)c1cnc2c(C(F)(F)F)cccc2c1N | no | no | no
COc1ccc(OC)c(-c2noc(Nc3cc(Cl)ccc3OC)n2)c1 | - | yes | no
CCCc1cc(N2CCC(NCc3cnn(-c4ccccc4)c3)CC2)nc(C)n1 | no | no | no
Cc1nccn1-c1ccc(CNC(=O)CCc2cc3n(n2)CCCNC3)cc1 | no | no | no
Cc1cccc(N2C(N)=C(C#N)C(c3cccnc3)C3=C2CC(C)(C)CC3=O)c1 (stereo unspecified) | no | no | no
C=CCC(CC)C(=O)NC(=O)N1CCCc2ccccc21 (stereo unspecified) | no | no | no
Cc1ccc(Cn2nnc(C(=O)Nc3cc(C)cc(C)c3)c2N)cc1 | no | no | no
N#Cc1ccccc1C(=O)N1CC[C@@H](CNC(=O)CC2CCCC2)[C@H](O)C1 | no | no | no
CN(C1CCc2c(c3ccccc3n2CC(=O)O)C1)S(=O)(=O)c1ccc(F)cc1 (stereo unspecified) | no | no | no
c1cncc(C2Nc3cccc4cccc(c34)N2)c1 | no | no | no
Cc1cc(COc2ccccc2)oc1C(=O)N[C@H]1CC[C@H]1NC(C)C | no | no | no
CCc1ccc(-c2c(C#N)c(N)nc3c2CCCCCC3)s1 | no | no | no
COc1ccc(C(CN)N2CCCC2)cc1OC.Cl.Cl (stereo unspecified) | no | no | no
O=C(Nc1cnc2n1CCCC2)c1cc2ncc(CCO)cn2n1 | no | no | no
Cc1nc(-c2cc3cccc(C)c3nc2NCc2ccc(F)cc2Cl)no1 | - | no | no
O=[N+]([O-])c1ccccc1CN1CCC(O)CC1 | no | yes | no
Nn1c(Cc2ccccc2)nnc1Cc1ccccc1 | no | no | no
Nc1nnc(COc2ccc(C3CCCCC3)cc2)s1 | no | no | no
CCNC(=O)[C@@H]1C[C@H](N)CN1C(=O)C(C)(C)Nc1ccc(OC)cc1 | no | no | no
Cc1cccc2cc(C(=O)NCc3cccnc3N3CCCC(O)C3)oc12 (stereo unspecified) | no | no | no
N[C@H]1CC[C@@H](n2cc(C(=O)N[C@@H]3c4ccccc4C[C@@H]3O)nn2)CC1 | no | no | no
CCCn1c(CCNC(=O)CCC(C)O)nc2ccccc21 (stereo unspecified) | - | no | no
CNc1ccccc1C(=O)OCC(=O)c1ccccc1 | no | no | no
COc1cc2c(cc1-c1cn(CCCCCO)nn1)OCCCO2 | no | no | no
O=C(c1ncn[nH]1)N1CCN(CCCO)CC(O)C1 (stereo unspecified) | no | no | no
COc1cccc(CCc2ccccc2C(=O)N2CC[C@H]3CNC[C@H]32)c1 | no | no | no
Cc1ccn(C)c(=N)c1 | no | no | no
CCc1nc(C)c(C(=O)N2CCNCC2C(=O)NCc2ccncc2)o1 (stereo unspecified) | no | no | no
Cc1c(CCC#N)c(N2CCN(CCO)CC2)n2c(nc3ccccc32)c1C#N | no | no | no
Cn1ncc(N2CCN(c3nc(N)nc4c3CCCC4)CC2)cc1=O | no | no | no
Cc1ccc(Nc2nc(C)nc3c2oc2ccccc23)cc1 | no | no | no
CCOC(=O)C1=C(N)NC(=N)/C1=N\c1ccc(OC)cc1 | no | no | no
CN1C(=C=Cc2cc(I)c(O)c(I)c2)C(C)(C)c2ccccc21 | no | no | no
Cc1cc(C)n(-c2nc3ccccc3nc2Nc2cccc(F)c2)n1 | no | no | no
O=C(Nc1cccc2ccccc12)c1cc2c(cc1Br)OCO2 | no | no | no
Cc1cc2c(c(=O)o1)C(c1c[nH]c3ccccc13)C(C#N)=C(N)O2 (stereo unspecified) | no | no | no
O=S(=O)(CCNC1CCN(c2nc3ccccc3o2)CC1)N1CCCC1 | no | no | no
Cc1ncc(CO)c2c1Oc1nc(-c3ccccc3)[nH]c(=S)c1C2 | no | no | no
COCCCNc1ncnc2c1c(-c1ccccc1)cn2-c1ccccc1Cl | - | no | no
O=S(=O)(NCc1cc2n(n1)CCCNC2)c1ccc(-n2cccn2)cc1 | no | yes | no
N[C@@H](Cc1ccc(O)cc1)C(=O)N1CCCN(C2CCCC2)CC1 | no | no | no
CC(=O)N1CCN(c2cncc(C(=O)N3CCOCC3)n2)CC(O)C1 (stereo unspecified) | no | no | no
O=S(=O)(c1ccc(Cl)cc1)c1nc(-c2ccccc2)oc1NCC1CCCO1 (stereo unspecified) | - | no | no

The last 4 entries again:

* O=S(=O)(NCc1cc2n(n1)CCCNC2)c1ccc(-n2cccn2)cc1 : SAM-II: no; PreQ1: yes; TPP: no
* N[C@@H](Cc1ccc(O)cc1)C(=O)N1CCCN(C2CCCC2)CC1 : SAM-II: no; PreQ1: no; TPP: no
* CC(=O)N1CCN(c2cncc(C(=O)N3CCOCC3)n2)CC(O)C1 (stereo unspecified) : SAM-II: no; PreQ1: no; TPP: no
* O=S(=O)(c1ccc(Cl)cc1)c1nc(-c2ccccc2)oc1NCC1CCCO1 (stereo unspecified) : PreQ1: no; TPP: no

Source: the ROBIN nucleic acid binder screens (doi:10.1002/anie.202211358).